Experimental data as given in PMC9571290, “Preliminary Structure–Activity Relationship Study of the MMV Pathogen Box Compound MMV675968 (2,4-Diaminoquinazoline) Unveils Novel Inhibitors of Trypanosoma brucei brucei” (Molecules, 2022).
Read-outs that look alike come from different tables or passages of the source.

System: bloodstream forms of Trypanosoma brucei brucei
Test: resazurin-based antitrypanosomal inhibition assay
Assay type: cell-based
Method: Parasites were axenically cultivated in sterile vented flasks containing complete Hirumi’s modified Iscove’s medium 9 (HMI-9) [500 mL IMDM (Iscove’s modified Dulbecco’s medium) (Gibco, Waltham, MA, USA) supplemented with 10% (v/v) heat-inactivated fetal bovine serum (HIFBS) (Sigma Aldrich), 10% (v/v) serum plus (Sigma Aldrich), HMI-9 supplement (1 mM hypoxanthine, 0.16 mM thymidine, 50 µM bathocuproine disulfonic acid, 1.5 mM cysteine, 1.25 Mm pyruvic acid, 0.2 mM 2-mercaptoethanol (Sigma Aldrich)), and 1% (v/v) penicillin–streptomycin (Sigma Aldrich) and incubated at 37 °C in a 5% CO2 atmosphere.
The in vitro inhibitory potency of the 400 MMVPB compounds against bloodstream forms of Trypanosoma brucei brucei was evaluated using the resazurin-based inhibition assay as previously described. Briefly, parasites at their mid-logarithmic growth phase were counted, and the cell density was adjusted with fresh complete HMI-9 medium to 2 × 10^5 trypanosomes per mL. Then, 90 µL of parasite suspension was then distributed into the wells of 96-well flat-bottomed plates containing 10 µL of compounds for a final test concentration of 10 µM. […] Each assay plate was set up in duplicate and repeated two times. The percent parasite inhibition was determined for each compound based on fluorescence readouts relative to the mean fluorescence of negative control wells. […]

IC50 (Table 2, MMVPB compounds with known anti-kinetoplastid activity, read-out: IC50 ± SD T. b. b.): 1.9 ± 0.05 µM
IC50 (Table 2, negative log of IC50 in molar, read-out: pIC50 T. b. b. (converted)): 1.91 µM
Compound: CNCCC(Oc1ccc(C(F)(F)F)cc1)c1ccccc1 (centres unmarked) [MMV001561, fluoxetine, reference compound]
